Library screening results

The chains behind the UniProt entries cited, without tags or fusion partners.
UniProt E9BF75, entry or part of it: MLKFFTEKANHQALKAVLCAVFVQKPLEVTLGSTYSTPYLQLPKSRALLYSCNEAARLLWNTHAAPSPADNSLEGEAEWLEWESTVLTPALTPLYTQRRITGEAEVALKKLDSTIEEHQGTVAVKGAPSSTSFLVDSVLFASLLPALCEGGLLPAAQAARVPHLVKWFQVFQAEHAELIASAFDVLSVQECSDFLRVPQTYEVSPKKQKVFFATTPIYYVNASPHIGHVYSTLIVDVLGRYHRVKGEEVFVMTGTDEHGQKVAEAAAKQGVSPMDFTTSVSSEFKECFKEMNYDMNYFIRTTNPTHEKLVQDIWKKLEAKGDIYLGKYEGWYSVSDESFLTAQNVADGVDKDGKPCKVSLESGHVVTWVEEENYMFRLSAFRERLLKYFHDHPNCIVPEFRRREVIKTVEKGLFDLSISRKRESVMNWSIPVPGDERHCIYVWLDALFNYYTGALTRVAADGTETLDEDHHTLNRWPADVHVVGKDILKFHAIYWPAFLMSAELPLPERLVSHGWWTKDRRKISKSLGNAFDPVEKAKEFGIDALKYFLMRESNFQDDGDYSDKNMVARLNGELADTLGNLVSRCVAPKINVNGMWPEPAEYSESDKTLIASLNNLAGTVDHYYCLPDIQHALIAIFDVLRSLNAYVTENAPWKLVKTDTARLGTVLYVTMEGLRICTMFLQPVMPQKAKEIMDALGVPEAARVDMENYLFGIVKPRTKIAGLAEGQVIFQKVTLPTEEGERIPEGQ

All values are in %. The controls that fix the scale are not given in the record; negative values are as filed. The compounds are a random part of those screened.

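Primary screen of methionyl-tRNA synthetase; the read-out is not stated. Target: Methionyl-tRNA synthetase (putative), Leishmania donovani (UniProt E9BF75). The test concentration is not given. The values are filed as inhibition. Size under these conditions: about 68,000 compounds, about 24 of them at 50% or above in at least one test.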

With CN(Cc1ccco1)[C@@H]1CN(Cc2cnn(C)c2)[C@@H]2CCCO[C@H]12 the screen gave 17.58%.
With O=S(=O)(NC1CCC12CCN(CC1CC1)CC2)c1ccccc1 (stereo not shown) the screen gave 14.86%.
With Cc1cnn(CCNCc2csc(-c3ccccc3)n2)c1 the screen gave 15.85%.
With Cc1n[nH]c(C)c1C1COCCN1C(=O)c1cccc(F)c1F (stereo not shown) the screen gave 16.71%.
With O=S(=O)(N1CCN(CC2CC2)CC1)N1CCCC1c1ccco1 (stereo not shown) the screen gave 11.98%.
With CCc1cnc(CN(C)C2CCN(CCCNS(C)(=O)=O)C2)o1 (stereo not shown) the screen gave 12.66%.
With Cc1nc(C)c(CC(=O)N2C[C@@H]3CC[C@H](C2)N(CC2CC2)C3)s1 the screen gave 12.1%.
With Cc1cc(NC(=O)CCN2CCn3c(C)nnc3C2)no1 the screen gave 12.71%.
With CCn1ccnc1C1CCN(c2ncnc3ccsc23)CC1 the screen gave 7.444%.
With Cn1cccc1CN1CCC2(CC1)CN(c1ncccn1)CCO2 the screen gave 12.9%.
With COc1ccc(NC(=O)NC(C)c2nc[nH]n2)cc1 (stereo not shown) the screen gave 15.99%.
With CCN1Cc2cc(F)ccc2N(CC(O)C(F)(F)F)CCC1=O (stereo not shown) the screen gave 8.493%.
With CCOC(C)c1noc(CN(C)C(=O)c2cc3ccccn3c2)n1 (stereo not shown) the screen gave 10.05%.
With CCCc1noc(CCC(=O)N2CCCC2c2ccsc2)n1 (stereo not shown) the screen gave -3.286%.
With Cc1cc(CNC(=O)COc2ccccc2F)c(C)o1 the screen gave 16.55%.
With C=Cc1ccc(C(=O)N2CCCC(Nc3ccccc3)C2)cc1 (stereo not shown) the screen gave 18.73%.
With CCN1CCCn2c(nc(CNC(=O)c3cnoc3C)cc2=O)C1 the screen gave 11.88%.
With CN(Cc1nc(COc2ccccc2)no1)CC1Cc2ccccc2O1 (stereo not shown) the screen gave 7.258%.
With COc1cc(C)c(CNC(C)c2csc(C3CC3)n2)cc1OC (stereo not shown) the screen gave 17.37%.
With CC(O)C1CCN(Cc2nccn2CC(F)(F)F)CC1 (stereo not shown) the screen gave 10.76%.
With CCN(CC)CCCNCC1CCOC(C)(C)C1 (stereo not shown) the screen gave 12.14%.
With Cc1cnn(CC2CCCN2CC(=O)Nc2cc(C(C)C)no2)c1 (stereo not shown) the screen gave 15.85%.
With CCN(CC)C(=O)CN(C)C1CCc2ccccc21 (stereo not shown) the screen gave 16.33%.
With COc1c(CNC2CCCc3ccccc32)c(C)nn1C (stereo not shown) the screen gave 12.27%.
With O=C(Cn1ccc2sccc2c1=O)NCCCc1ccccc1 the screen gave 5.426%.
With CS(=O)(=O)CCCOc1cccc(-n2ccnc2)c1 the screen gave 10.87%.
With Cc1ccc(C(C)(O)CNC(=O)c2sccc2Br)o1 (stereo not shown) the screen gave 6.028%.
With Cc1cc(N2CCC(CC(N)=O)CC2)nc(-c2ccncc2)n1 the screen gave 18.47%.
With CN(C)S(=O)(=O)N1C[C@@H]2CC[C@H](C1)N(Cc1ccc3nsnc3c1)C2 the screen gave 7.965%.
With CCCc1nc(NCCCOC)c2c(n1)c(C)nn2CC the screen gave 8.794%.
With c1cncc(CN(Cc2ccsc2)Cc2ccc(C3CCCCO3)o2)c1 (stereo not shown) the screen gave 5.344%.
With O=C1CC2(CCN(CC3CC3)C2)CN1c1ccc2c(c1)OCO2 (stereo not shown) the screen gave 9.013%.
With COCCN1CCC(NCc2c(F)cccc2F)C1 (stereo not shown) the screen gave 8.523%.
With CCOCCC1(CNC(=O)c2ccc(C)nc2)CCCC1 the screen gave 11.49%.
With COCCCNc1c(-c2ccc(Cl)cc2)c(=O)c1=O the screen gave 13.02%.
With Cn1cnnc1S(=O)(=O)C1CCN(S(=O)(=O)c2ccccc2F)CC1 the screen gave 7.759%.
With CS(=O)(=O)c1cccc(C(=O)NCc2nc3cc(F)ccc3[nH]2)c1 the screen gave 15.92%.
With CN(Cc1cnc2ccccc2c1)C(=O)C(c1ccccc1F)N(C)C (stereo not shown) the screen gave 1.023%.
With COC(=O)CNc1cc(C(=O)NCC(F)(F)F)cc(F)c1C the screen gave 4.819%.
With Cc1ccc(CNCC(C)Oc2ccccn2)cc1 (stereo not shown) the screen gave 8.182%.
With CN1CCC(N(CCc2ccccc2)C(=O)c2cc[nH]c2)CC1 the screen gave 12.14%.
With c1ccc(CCCN2CCN(CCn3cncn3)CC2)cc1 the screen gave 9.157%.
With COc1cnc(N2CCC(c3ncc[nH]3)CC2)nc1 the screen gave -1.067%.
With Cc1cc(NC(=O)c2ccc(C)c(F)c2)[nH]n1 the screen gave -1.72%.
With CC(C)N(Cc1c[nH]nc1-c1ccc2c(c1)OCO2)Cc1nccn1C the screen gave -8.02%.
With O=C(Nc1cccn(Cc2ccccc2)c1=O)c1ccncc1F the screen gave 9.574%.
With CCOC(=O)CN1CCC2(CC1)CC(=O)c1ccc(OC)cc1O2 the screen gave 5.051%.
With Cc1cc(C)c(CNC(=O)NCc2nnc3n2CCCCC3)c(=O)[nH]1 the screen gave 15.06%.
With Cc1nccc([C@@H]2C[C@@H]3CCN(S(C)(=O)=O)C[C@H]3O2)n1 the screen gave 13.01%.
With Cc1nn(C)c(Cl)c1C1CCCN1C(=O)c1cc(C2CC2)on1 (stereo not shown) the screen gave 16.67%.
With CCOc1ccccc1Oc1ccc(CN)cn1 the screen gave 0.8065%.
With Cc1cc(NC(=O)CN2CCC(N(C)Cc3ncc(C)o3)C2)n(C)n1 (stereo not shown) the screen gave 6.479%.
With Cc1cccc(C(=O)N2CCCSCC2CN2CCCC2)c1 (stereo not shown) the screen gave 3.753%.
With Cc1nc(C2CCCN2C(=O)Cc2ccc(F)cc2)nc(O)c1C (stereo not shown) the screen gave 11.58%.
With CN1CCC(N2CCOC3(CCCC3)C2)C1=O (stereo not shown) the screen gave -4.178%.
With CC(C)Nc1nc(N2CCCC2)nc2c1CN(c1ncc(F)cn1)CC2 the screen gave 9.589%.
With CN(Cc1cnn(C)c1)S(=O)(=O)N1CCCCC1 the screen gave 11.57%.

For reference, 5 entries once more:

| structure | Inhibition |
|---|---|
| `CC(O)C1CCN(Cc2nccn2CC(F)(F)F)CC1` (stereo not shown) | 10.76% |
| `CCOc1ccccc1Oc1ccc(CN)cn1` | 0.8065% |
| `CCN1Cc2cc(F)ccc2N(CC(O)C(F)(F)F)CCC1=O` (stereo not shown) | 8.493% |
| `CN(Cc1nc(COc2ccccc2)no1)CC1Cc2ccccc2O1` (stereo not shown) | 7.258% |
| `c1cncc(CN(Cc2ccsc2)Cc2ccc(C3CCCCO3)o2)c1` (stereo not shown) | 5.344% |

Measurements from “University of Dundee, Small-Polar-MMV Screening Library” (2021), ChEMBL document CHEMBL3988442.